Laboratory results: PubChem BioAssay AID504764 (Drosophila RNAi Screening Center, 2011)
The deposit covers about 22,000 reagents; below is a random part of those with a known target gene and a result. In the full data, 403 (1.9%) are marked active. 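Unnormalised raw counts per well; ratio z-scores behind the hit calls and whether each hit raises or lowers signal are not deposited.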 Reagents against one gene are numbered here. Names joined by + are all predicted targets of the reagent. The record does not give: the amount of reagent.

Aim: 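Knock-downs that raise or lower a Notch target reporter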 (primary screen)
Cell system: Drosophila Kc167 cells
Reagent: long dsRNA against Drosophila genes
Duration: about 5 days (4 days dsRNA, then 24 h after transfection)
Conditions: transfection of constitutively active membrane-tethered Notch lacking the extracellular domain, read 24 h later
Read-out: 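Light from a Notch-responsive E(spl)m3 luciferase reporter under active Notch, with control-promoter and no-Notch reporter wells to normalise; raw counts from paired wells a and b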
Scale: induced reporter light, run 1, well a and induced reporter light, run 1, well b: higher = more light from the Notch target reporter with active Notch; control promoter light, run 1, well a and control promoter light, run 1, well b: higher = more light from the viral control promoter (cell number, transfection, viability); uninduced reporter light, run 1, well a: higher = more light from the Notch target reporter without active Notch
Hit rule: 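Hit if the duplicate-averaged log2 ratio of induced to control-promoter light gives a plate-wise z beyond ±2, or induced to uninduced beyond ±1.8; weak-control or discordant-duplicate wells dropped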
Calls: active = modifier hit (raised or lowered Notch signal); inactive = not a hit

gene knocked down	dsRNA no.	induced reporter light, run 1, well a	induced reporter light, run 1, well b	control promoter light, run 1, well a	control promoter light, run 1, well b	uninduced reporter light, run 1, well a	Call
CG33298	1	1.20e5	1.51e5	87650	1.15e5	20770	inactive
CG33298	2	3.24e5	3.52e5	2.55e5	2.52e5	23528	inactive
CG13907	1	1.10e5	1.15e5	1.89e5	2.08e5	10385	inactive
Ccdc58 + CG34116	1	1.35e5	1.59e5	1.33e5	1.21e5	25685	inactive
CG13069	1	2.54e5	2.17e5	3.04e5	2.40e5	10795	inactive
CG10433	1	1.95e5	1.83e5	1.77e5	1.89e5	14950	inactive
EMC8-9	1	2.19e5	1.91e5	1.30e5	1.78e5	15085	inactive
CG4372	1	30785	33810	29915	20340	2160	inactive
kek3	1	1.28e5	1.48e5	1.54e5	1.54e5	11790	inactive
kek3	2						active
CG15021	1	1.36e5	1.40e5	1.76e5	1.57e5	7290	inactive
CG12935	1	1.43e5	1.39e5	1.48e5	1.29e5	12890	inactive
XRCC1	1	2.31e5	2.46e5	2.98e5	2.59e5	14895	inactive
alpha-Est6	1	1.29e5	1.05e5	1.15e5	90680	8315	inactive
Obp56a	1	1.01e5	1.03e5	96585	1.11e5	7785	inactive
CG30356	1	45540	55285	72110	92910	2930	inactive
Osi21	1	1.11e5	1.53e5	72200	87275	16692	inactive
ddbt	1	2.35e5	2.00e5	1.94e5	1.68e5	16565	inactive
Ror	1	1.31e5	1.62e5	84590	98365	18160	inactive
CG34236	1	1.84e5	1.74e5	1.99e5	2.12e5	17080	inactive
dmt	1	60530	57245	69195	57050	3725	inactive
Atf6	1	1.76e5	2.00e5	2.33e5	2.39e5	10210	active
Atf6	2	2.28e5	2.02e5	1.72e5	1.93e5	15050	inactive
CG18139 (retired record) + Hmx	1	2.18e5	1.96e5	2.18e5	2.27e5	18930	inactive
Sr-CIV	1	1.76e5	1.61e5	1.74e5	1.58e5	10495	inactive
CG13280	1	1.20e5	1.33e5	1.41e5	1.50e5	9730	inactive
CG42597	1	1.11e5	1.24e5	1.16e5	92465	11575	inactive
Nlg2	1	1.48e5	1.25e5	1.59e5	1.40e5	8450	inactive
CG43325	1	1.89e5	2.19e5	2.22e5	2.02e5	13475	inactive
CG14515	1	1.13e5	1.26e5	1.20e5	1.33e5	9595	inactive
Ih	1	1.48e5	1.31e5	1.52e5	1.53e5	14050	inactive
Klp64D	1	3.02e5	2.22e5	2.22e5	2.08e5	15405	inactive
CG7300	1	2.47e5	3.05e5	2.11e5	2.70e5	21665	inactive
p130CAS + Dic61B	1	43555	43475	68220	73650	3700	inactive
vilya	1	1.15e5	1.34e5	2.28e5	1.54e5	7092	inactive
Ran	1	29235	31720	48875	42490	1615	inactive
CG15599	1	74695	56440	79955	57795	8185	inactive
CPT2	1	1.54e5	1.35e5	2.33e5	2.62e5	10610	inactive
Pgm2a	1	94120	1.10e5	1.10e5	87075	8265	inactive
CG3740	1	1.05e5	98310	1.29e5	1.53e5	9740	inactive
Samuel	1	71095	69325	45960	45105	15210	inactive
Samuel	2	22680	25160	13250	9750	7400	inactive
Samuel	3	1.17e5	1.42e5	67340	1.11e5	14442	inactive
CG32354	1	1.15e5	1.05e5	77110	23810	9575	inactive
CG32354	2	2.16e5	1.95e5	1.89e5	1.79e5	10300	inactive
hd	1	78460	75090	79355	50415	6270	inactive
Bet3	1	1.38e5	1.48e5	2.25e5	2.00e5	4385	inactive
CG11052	1	47265	55660	66495	46830	4255	inactive
Dred	1	64475	52610	43640	42235	3995	inactive
Dred	2	1.96e5	1.92e5	2.53e5	2.45e5	14860	inactive

Already shown: entries from further up.
gene knocked down	dsRNA no.	induced reporter light, run 1, well a	induced reporter light, run 1, well b	control promoter light, run 1, well a	control promoter light, run 1, well b	uninduced reporter light, run 1, well a	Call
Ran	1	29235	31720	48875	42490	1615	inactive
CG15599	1	74695	56440	79955	57795	8185	inactive
CPT2	1	1.54e5	1.35e5	2.33e5	2.62e5	10610	inactive
Pgm2a	1	94120	1.10e5	1.10e5	87075	8265	inactive
CG3740	1	1.05e5	98310	1.29e5	1.53e5	9740	inactive
Samuel	1	71095	69325	45960	45105	15210	inactive
Samuel	2	22680	25160	13250	9750	7400	inactive
Samuel	3	1.17e5	1.42e5	67340	1.11e5	14442	inactive
